SMILES strings stand for the structures. The list shows a part of the results. Residues, ends and D or L forms follow the SMILES beside them. *: point of attachment. Cbz = O=C(OCc1ccccc1)*

The chains behind the UniProt entries cited, without tags or fusion partners. Where a name states a change or a piece, a line headed by the entry shows the natural chain unless it says otherwise.
UniProt Q9UL40: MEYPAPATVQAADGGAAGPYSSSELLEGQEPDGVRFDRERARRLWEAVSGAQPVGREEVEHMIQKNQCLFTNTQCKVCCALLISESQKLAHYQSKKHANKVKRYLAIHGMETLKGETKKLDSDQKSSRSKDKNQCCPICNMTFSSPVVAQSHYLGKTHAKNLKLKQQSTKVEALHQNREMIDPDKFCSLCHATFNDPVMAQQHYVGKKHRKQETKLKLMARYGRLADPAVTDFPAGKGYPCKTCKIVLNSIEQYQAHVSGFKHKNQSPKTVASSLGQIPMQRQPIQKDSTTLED

From the supplement of paper PMC10849652 come the findings set out here.

The assay deals with ZNF346 (UniProt Q9UL40). Briefly: log2 fold change, soluble protein after heating vs DMSO (PISA); higher = thermal stabilisation; K562 cells, 10 uM, 30 min; active = over 0.2 and 3.5 SD of the protein, either way, in both replicates (recomputed). The method in brief: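 Soluble protein was quantified by TMTpro 16plex LC-MS/MS after channel sums were equalised. It was obtained as the supernatant after 21,000xg for 90 min from pooled aliquots of K562 cells (2×10^6 cells/mL, 10 μM compound, 30 min) heated for 3 min across 48°C-58°C and extracted in PBS with 0.5% NP-40 at 4°C. Thermal stability values are relative to control samples and come from duplicates. They are given as log2 fold changes.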
As for `NC(=O)c1cnc(N[C@@H]2CCCC[C@@H]2N)nc1Nc1cccc(-n2nccn2)c1`, the log2 fold change was inactive: -0.154. Next, `C/C(=N\NC(=O)c1cccc(S(=O)(=O)N2CCOCC2)c1)c1cc(Cl)ccc1O`: inactive: -0.103; `COC(=O)N[C@@H](C)CNc1nccc(-c2cn(C(C)C)nc2-c2cc(Cl)cc(NS(C)(=O)=O)c2F)n1` [encorafenib]: inactive: 0.044; `Cn1cc(-c2ccc3nnc(C(F)(F)c4ccc5ncccc5c4)n3n2)cn1`: inactive: 0.066. As to `Cc1ccc(C(=O)N(CCCN)[C@@H](c2nc3cc(Cl)ccc3c(=O)n2Cc2ccccc2)C(C)C)cc1` [ispinesib], the log2 fold change is inactive: -0.057. As to `CNCc1ccc(-c2[nH]c3cc(F)cc4c3c2CCNC4=O)cc1` [rucaparib], the log2 fold change is inactive: 0.09.

With `c1cc(OCCN2CCCCC2)cc(-c2n[nH]c3ccc(-c4nnc[nH]4)cc23)c1`, the log2 fold change was inactive: -0.038.

`O=C(CCCCCCNC(=O)c1cnc(N(c2ccccc2)c2ccccc2Cl)nc1)NO` [citarinostat]: the log2 fold change is inactive: -0.06.

`CCCc1cc(C)[nH]c(=O)c1CNC(=O)c1cc(-c2ccnc(N3CCN(C)CC3)c2)cc2c1cnn2C(C)C`: the log2 fold change was inactive: -0.092. To `C[C@@H](N)c1ccc(C(=O)Nc2ccnc3[nH]ccc23)cc1` belongs inactive: 0.077. As to `O=C1NC(=NCc2cccs2)S/C1=C\c1ccc2ncccc2c1`, the log2 fold change is inactive: 0.182. Next, `CC[C@H](C)n1cc(C)c2c(C(=O)NCc3c(C)cc(C)[nH]c3=O)cc(-c3ccc(N4CCNCC4)nc3)cc21`: inactive: 0.074. For `FC(F)(F)c1ccc(/C=C/c2nc(COc3ccc(CCCCn4ccnn4)cc3)co2)cc1` [mubritinib], the log2 fold change is inactive: 0.087. For the compound `CC(=O)c1cnc2ccc(-c3cc(Cl)c(O)c(Cl)c3)nc2c1N[C@H]1CC[C@H](CN(C)C)CC1`, the log2 fold change was inactive: -0.246. On to `Cc1ccc(NC(=O)c2cccc(N(C)C)c2)cc1NC(=O)c1ccc(O)cc1`, for which the log2 fold change was inactive: -0.045. As for `Cc1ccc(NC(=O)c2ccc(CN3CC[C@H](N(C)C)C3)c(C(F)(F)F)c2)cc1Nc1nccc(-c2cncnc2)n1` [bafetinib], the log2 fold change is inactive: -0.006. On to `CC(C)C[C@@H](C=O)NC(=O)[C@H](CC(C)C)NC(=O)[C@H](CC(C)C)NC(=O)OCc1ccccc1` (Cbz-Leu-Leu-Leu-aldehyde), for which the log2 fold change is inactive: -0.012. On to `Cc1nc(Nc2n[nH]c3c2CN(C(=O)N[C@H](CN(C)C)c2ccccc2)C3(C)C)c2sccc2n1`, for which the log2 fold change was inactive: 0.095. To `Oc1cc(-c2nc(-c3ccccc3)[nH]c2-c2ccncc2)ccc1Cl` belongs inactive: -0.006; to `CC[C@@H]1C(=O)N(C)c2cnc(Nc3ccc(C(=O)NC4CCN(C)CC4)cc3OC)nc2N1C1CCCC1`, inactive: 0.135; to `CC(C)(C)Cn1c(N)nc2ccc(-c3[nH]c(C(C)(C)C)nc3-c3ccc(F)cc3)nc21` [ralimetinib], inactive: 0.033. Next, `O=C1c2ccccc2-c2n[nH]c3cccc1c23`: inactive: -0.05. Regarding `Cc1ncc(-c2ccnc(Nc3ccc(S(C)(=O)=O)cc3)n2)n1C(C)C`, the log2 fold change is inactive: -0.1.

`COc1cc(C(=O)O)ccc1NC(=O)[C@@H]1N[C@@H](CC(C)(C)C)[C@](C#N)(c2ccc(Cl)cc2F)[C@H]1c1cccc(Cl)c1F` [idasanutlin]: the log2 fold change is inactive: -0.049. Next, `CO[C@H]1C[C@@H]2CC[C@@H](C)[C@@](O)(O2)C(=O)C(=O)N2CCCC[C@H]2C(=O)O[C@H]([C@H](C)C[C@@H]2CC[C@H](n3cnnn3)[C@H](OC)C2)CC(=O)[C@H](C)/C=C(\C)[C@@H](O)[C@@H](OC)C(=O)[C@H](C)C[C@H](C)/C=C/C=C/C=C/1C` [zotarolimus]: inactive: -0.053; `Cc1cn(-c2cc(NC(=O)c3ccc(C)c(Nc4nccc(-c5cccnc5)n4)c3)cc(C(F)(F)F)c2)cn1` [nilotinib]: inactive: -0.177; `COc1cc2ncnc(Nc3ccc(F)c(Cl)c3)c2cc1OCCCN1CCOCC1` [gefitinib]: inactive: 0.011. Next, `O=C1NC(=O)/C(=C\c2ccc3nccnc3c2)S1`: inactive: 0.014; `NC1(c2ccc(-c3nc4ccn5c(=O)[nH]nc5c4cc3-c3ccccc3)cc2)CCC1`: inactive: 0.086; `Cn1cc(-c2ccc3c(c2)CCN3C(=O)Cc2cccc(C(F)(F)F)c2)c2c(N)ncnc21`: inactive: -0.043.
